{
  "sequences": {"note": "The chains behind the UniProt entries cited, without tags or fusion partners.", "UniProt Q92830, whole entry, looked up": "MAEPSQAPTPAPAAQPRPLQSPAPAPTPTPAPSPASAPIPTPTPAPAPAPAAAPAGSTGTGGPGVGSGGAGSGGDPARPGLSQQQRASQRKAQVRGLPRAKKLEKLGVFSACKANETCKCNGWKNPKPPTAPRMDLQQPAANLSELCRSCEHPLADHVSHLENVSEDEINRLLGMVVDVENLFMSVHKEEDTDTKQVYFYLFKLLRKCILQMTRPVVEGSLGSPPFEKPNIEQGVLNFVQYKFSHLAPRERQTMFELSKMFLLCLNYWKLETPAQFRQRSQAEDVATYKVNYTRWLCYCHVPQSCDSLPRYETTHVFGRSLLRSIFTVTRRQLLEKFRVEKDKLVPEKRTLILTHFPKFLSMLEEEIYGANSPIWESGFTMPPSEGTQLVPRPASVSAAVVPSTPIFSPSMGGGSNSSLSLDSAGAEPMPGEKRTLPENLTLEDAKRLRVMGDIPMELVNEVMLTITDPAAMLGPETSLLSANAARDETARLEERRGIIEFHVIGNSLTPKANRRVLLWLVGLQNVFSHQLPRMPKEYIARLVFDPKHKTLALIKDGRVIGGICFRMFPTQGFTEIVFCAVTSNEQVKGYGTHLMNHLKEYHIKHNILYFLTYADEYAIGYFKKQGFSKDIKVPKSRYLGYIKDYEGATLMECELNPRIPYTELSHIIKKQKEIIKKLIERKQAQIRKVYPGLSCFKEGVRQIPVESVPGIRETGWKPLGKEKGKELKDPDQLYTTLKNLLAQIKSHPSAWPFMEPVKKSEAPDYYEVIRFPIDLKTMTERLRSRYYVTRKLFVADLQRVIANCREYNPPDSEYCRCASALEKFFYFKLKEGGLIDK"},
  "source": "PubChem BioAssay AID504327",
  "about": "(National Center for Advancing Translational Sciences (NCATS), 2011)",
  "note": "Where “and” joins values, the source holds several entries; their conditions need not be identical. Equal entries are not always repeated. In all, about 390,000 compounds went through this assay and about 820 (0.21%) were called active. Inconclusive means that the source gave no clear call. Such entries were picked first, then a sample of the others. Calls follow the shape of the dose curve; as a rule, active = well fitted inhibition curve with a large enough effect; inconclusive = small, poorly fitted or top-dose-only effect, or another doubt; inactive = no such curve, though single readings can be large or run the other way. Potencies of inconclusive entries are doubtful fits and often do not repeat. % is scaled to controls: 0 for no effect and ±100 for the full control effect; potency is read from the fitted curve at half-maximal effect.",
  "data": [
    {"biological_target": "Histone acetyltransferase KAT2A (Homo sapiens) (UniProt Q92830)", "test": "qHTS Assay for Inhibitors of GCN5L2", "conditions": "GCN5L2 HAT assay, ThioGlo1 CoA-SH fluorescence; activity change, negative = inhibition: at 58.9 µM (top of the series) unless noted", "in_short": "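ThioGlo1-coupled HAT assay: 20nM GCN5L2, 70uM acetyl-CoA, 75uM H3(1-25) peptide, pH 7.5. Fluorescence read at 340/540nm at start and after 20 min at room temperature.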", "values": [
      {"smiles": "CC(C)C(Sc1nc(-c2ccccc2)cc(-c2ccccc2)c1C#N)C(=O)O", "note": "(configuration not stated)", "Potency": "inconclusive: 39.8 µM [inhibitor, single point]"},
      {"smiles": "CCOc1ccc(S(=O)(=O)NCCCn2ccnc2)cc1", "activity change, negative = inhibition": "inactive: -7.74%"},
      {"smiles": "C=CCn1c(NC(=O)c2ccccc2)nc2ccccc21", "Potency": "inconclusive: 35.5 µM [inhibitor, single point]"},
      {"smiles": "O=C(Nc1ccccc1C(F)(F)F)c1ncoc1-c1ccco1", "activity change, negative = inhibition": "inactive: 9.5%"},
      {"smiles": "COc1ccccc1-n1c(N)c(C(N)=O)sc1=S", "Potency": "inconclusive: 39.8 µM [inhibitor, single point]"},
      {"smiles": "O=C(Nc1ccc(O)c(-c2nc3ccccc3o2)c1)C1(c2ccc(Cl)cc2)CCCC1", "Potency": "inconclusive: 15.8 µM [inhibitor, partial curve]"},
      {"smiles": "COc1cc(NC(=O)c2cc3nc(C4CC4)cc(C(F)(F)F)n3n2)c(OC)cc1Cl", "Potency": "inconclusive: 31.6 µM [inhibitor, single point]"},
      {"smiles": "COc1ccc(S(=O)(=O)N=C2C=C(C)C(=O)C(C)=C2)cc1", "Potency": "inconclusive: 7.08 µM [inhibitor, single point]"},
      {"smiles": "CC1CCN(S(=O)(=O)c2ccc3c(c2)c(=O)c(C(=O)N2CCN(c4cccc(Cl)c4)CC2)cn3C)CC1", "activity change, negative = inhibition": "inactive: -0.649%"},
      {"smiles": "Cc1cc(C)c(C(=O)CSc2nnc(N)s2)cc1C", "activity change, negative = inhibition": "inactive: -7.35%"},
      {"smiles": "COC(=O)c1ccc(NC(=O)CSc2cn(CC(=O)N3CCCCC3)c3ccccc23)cc1", "activity change, negative = inhibition": "inactive: -3.19%"},
      {"smiles": "Cc1nc(N=Nc2cc(S(=O)(=O)O)c3cc([N+](=O)[O-])cc(S(=O)(=O)O)c3c2)c(COP(=O)(O)O)c(C=O)c1O", "Potency": "inconclusive: 25.1 µM [inhibitor, partial curve] and inconclusive: 22.4 µM [inhibitor, single point]"},
      {"smiles": "CCCCC1=CC2=CC(=O)C(C)(OC(=O)CC)C(=O)C2=CN1Cc1ccc2c(c1)OCO2", "note": "(configuration not stated)", "activity change, negative = inhibition": "inactive: -7.06%"},
      {"smiles": "CC1(C)CC(=O)C(CC(=O)NC(=O)NCc2ccccc2)=C(O)C1", "activity change, negative = inhibition": "inactive: -4.87%"},
      {"smiles": "Cc1c(C(=O)N(CCc2ccccc2)Cc2ccccc2)cccc1[N+](=O)[O-]", "Potency": "inconclusive: 35.5 µM [inhibitor, single point]"},
      {"smiles": "O=C(O)c1ccc(N2N=C(c3ccccc3)CC2c2ccccc2)cc1", "note": "(configuration not stated)", "Potency": "active: 15.8 µM"},
      {"smiles": "CC(=O)Nc1ccc(S(=O)(=O)NNc2cccc(C)c2)cc1", "Potency": "inconclusive: 25.1 µM [inhibitor, single point]"},
      {"smiles": "COCCCn1c(=S)[nH]c2c(sc3ccccc32)c1=O", "Potency": "inconclusive: 5.62 µM [inhibitor, partial curve]"},
      {"smiles": "Cc1cc2cc(CNC(=O)c3ccc(Br)o3)ccc2[nH]1", "Potency": "inconclusive: 39.8 µM [inhibitor, single point]"},
      {"smiles": "O=c1c2ccc(Cl)cc2nc(-c2cccc(C(F)(F)F)c2)n1O", "activity change, negative = inhibition": "inactive: -17.2%"},
      {"smiles": "COC(=O)c1c(-c2ccccc2)nn(-c2ccccc2)c1C(=O)OC", "Potency": "inconclusive: 3.55 µM [inhibitor, single point]"},
      {"smiles": "CCN1C(=O)c2cccc3c(S(=O)(=O)Nc4ccccc4OC)ccc1c23", "Potency": "inconclusive: 0.708 µM [inhibitor, single point]"},
      {"smiles": "OC(COCc1ccccc1)Cn1cnc2ccccc21", "note": "(configuration not stated)", "Potency": "inconclusive: 20 µM [inhibitor, partial curve]"},
      {"smiles": "CN(CC(=O)Nc1ccccc1Cl)C(=O)c1ccc(COc2ccccc2)cc1", "Potency": "inconclusive: 28.2 µM [inhibitor, single point]"},
      {"smiles": "COc1ccc(CCn2c(N)c(C(=O)NCc3ccco3)c3nc4ccccc4nc32)cc1OC", "Potency": "inconclusive: 39.8 µM [inhibitor, single point]"},
      {"smiles": "Cc1cccc(S(=O)(=O)c2cn(C)c3cc(N4CCN(c5ccccc5)CC4)c(F)cc3c2=O)c1", "activity change, negative = inhibition": "inactive: 2.37%"},
      {"smiles": "CCCCCCCCCCCCN1C/C(=C\\C(=O)OCC)c2cc(C(F)(F)F)ccc2S1(=O)=O", "activity change, negative = inhibition": "inactive: -12.2%"},
      {"smiles": "Cc1cccc(C(=O)Nc2nnc(COc3ccccc3)s2)c1", "Potency": "inconclusive: 8.91 µM [inhibitor, single point]"},
      {"smiles": "COC(=O)c1ccc(C2NC(=O)c3c(sc(C)c3C)N2)cc1", "note": "(configuration not stated)", "Potency": "inconclusive: 10 µM [inhibitor, partial curve, poor fit]"},
      {"smiles": "COc1cc(C#N)c(NC(=O)CN2CCC(C(N)=O)CC2)cc1OC", "activity change, negative = inhibition": "inactive: -11.9%"},
      {"smiles": "CCN(CC)CCNC(=O)c1sc2nc(-c3ccccc3)cn2c1C", "Potency": "inconclusive: 7.08 µM [inhibitor, single point]"},
      {"smiles": "Cc1oc(-c2cccc(Cl)c2)nc1CS(=O)(=O)CC(=O)NCCN1CCOCC1", "Potency": "inconclusive: 0.631 µM [inhibitor, single point]"},
      {"smiles": "CCN(C(=O)c1nn(-c2ccc(OC)cc2)c(=O)c2c1c1ccccc1n2C)c1ccc(OC)cc1", "activity change, negative = inhibition": "inactive: -8.15%"},
      {"smiles": "COCCCn1c(=S)[nH]c2ccc(N3CCOCC3)cc2c1=O", "Potency": "inconclusive: 17.8 µM [inhibitor, partial curve]"},
      {"smiles": "COC(CNC(=O)c1ccc2nc(-c3ccccc3)c(-c3ccccc3)nc2c1)OC", "activity change, negative = inhibition": "inactive: -1.83%"},
      {"smiles": "COc1cccc(-c2noc(-c3cc(C(C)C)[nH]n3)n2)c1OC", "Potency": "inconclusive: 35.5 µM [inhibitor, single point]"},
      {"smiles": "COc1cc(/C=C2\\SC(=Nc3cccnc3)NC2=O)cc(OC)c1OC", "Potency": "inconclusive: 0.501 µM [inhibitor, full curve]"},
      {"smiles": "Cc1nnc(N/N=C/c2cc(C)n(-c3ccc(F)cc3)c2C)n1N", "activity change, negative = inhibition": "inactive: -2.84%"},
      {"smiles": "Cc1ccc(OCC(O)CN2CCc3ccccc3C2)c(C)c1", "note": "(configuration not stated)", "activity change, negative = inhibition": "inactive: -3.03%"},
      {"smiles": "Cc1cc(=O)[nH]c(SCC(=O)c2ccc(O)c(O)c2)n1", "Potency": "inconclusive: 3.16 µM [inhibitor, single point]"},
      {"smiles": "O=C(CN1C(=O)CCC1=O)NC(=O)NC1CCCC1", "Potency": "inconclusive: 0.398 µM [inhibitor, full curve]"},
      {"smiles": "Cc1nn(-c2cccc(C(F)(F)F)c2)c(=O)c2ccccc12", "Potency": "inconclusive: 14.1 µM [inhibitor, partial curve, poor fit]"},
      {"smiles": "O=C(COC(=O)c1ccc(Cl)cc1[N+](=O)[O-])NNC(=O)c1cccs1", "Potency": "inconclusive: 35.5 µM [inhibitor, single point]"},
      {"smiles": "COc1ccc(Oc2ncc3nc(-c4cccs4)c(=O)n(C)c3n2)cc1", "Potency": "inconclusive: 39.8 µM [inhibitor, single point]"},
      {"smiles": "O=c1[nH]ncn2cccc12", "Potency": "inconclusive: 3.98 µM [inhibitor, single point]"},
      {"smiles": "CC(C)CNC(=O)COC(=O)c1c2c(nc3ccccc13)/C(=C/c1cccs1)CC2", "Potency": "inconclusive: 25.1 µM [inhibitor, single point]"},
      {"smiles": "COc1cccc(-c2nnc(NC(=O)C(C)C)o2)c1", "Potency": "inconclusive: 39.8 µM [inhibitor, single point]"},
      {"smiles": "COc1ccc(-c2cc3ccc(OCc4nn[nH]n4)cc3oc2=O)cc1", "Potency": "inconclusive: 28.2 µM [inhibitor, partial curve]"},
      {"smiles": "CCC(C)NC(=O)c1sc2nc(C)c(C(=O)Nc3ccc(C)cc3C)c(-c3ccc(NC(C)=O)cc3)c2c1N", "note": "(configuration not stated)", "Potency": "inconclusive: 35.5 µM [inhibitor, single point]"},
      {"smiles": "Cc1ccc(NC(=O)CSc2nnc(-c3cnccn3)n2Cc2ccco2)cc1C", "Potency": "inconclusive: 0.126 µM [inhibitor, full curve, poor fit]"},
      {"smiles": "O=C(/C=C/c1ccco1)c1ccccc1O", "Potency": "inconclusive: 35.5 µM [inhibitor, single point]"},
      {"smiles": "NS(=O)(=O)c1ccc(CNC(=O)/C=C/c2ccc(Cl)c(Cl)c2)cc1", "Potency": "inconclusive: 3.98 µM [inhibitor, single point]"},
      {"smiles": "CCOc1ccc(-n2c(C)c(C(C)=O)c3cc(OCC(N)=O)ccc32)cc1", "Potency": "inconclusive: 11.2 µM [inhibitor, partial curve]"},
      {"smiles": "COc1cc(C(=O)Nc2ccc(-c3nc4cc(C)ccc4o3)c(O)c2)cc(OC)c1OC", "Potency": "inconclusive: 15.8 µM [inhibitor, partial curve]"},
      {"smiles": "COc1ccccc1NS(=O)(=O)c1cccc(-n2c(O)c(C=Nc3ccccc3C(=O)O)c3ccccc3c2=O)c1", "Potency": "inconclusive: 28.2 µM [inhibitor, single point]"},
      {"smiles": "Cc1ccc(C)c(C2=NNC(=NCc3ccccc3)SC2)c1", "Potency": "inconclusive: 0.708 µM [inhibitor, single point]"},
      {"smiles": "CCS(=O)(=O)N1CCN(c2ccc(C(=O)N3CCOCC3)cc2[N+](=O)[O-])CC1", "activity change, negative = inhibition": "inactive: -4.66%"},
      {"smiles": "CN(Cc1ccco1)c1cc(-c2ccoc2)ncn1", "Potency": "active: 31.6 µM"},
      {"smiles": "S=C(Nc1ccc(Cl)cc1Cl)N1CCCC1", "Potency": "inconclusive: 35.5 µM [inhibitor, single point]"},
      {"smiles": "CC1CN(C(=S)Nc2ccc(Br)cc2Cl)CC(C)O1", "note": "(configuration not stated)", "Potency": "inconclusive: 0.891 µM [inhibitor, full curve, poor fit]"},
      {"smiles": "CC(=O)NN1C(=O)c2ccccc2NC1c1ccccc1", "note": "(configuration not stated)", "Potency": "inconclusive: 2.24 µM [inhibitor, partial curve]"},
      {"smiles": "O=c1oc2ccccc2cc1-c1nc2ccccc2o1", "Potency": "inconclusive: 25.1 µM [inhibitor, single point]"},
      {"smiles": "CC(C(=O)C12CC3CC(CC(C3)C1)C2)N1CCOCC1", "note": "(configuration not stated)", "Potency": "inconclusive: 3.98 µM [inhibitor, full curve, poor fit]"},
      {"smiles": "CC(=O)c1ccc(N2CCN(C(=O)c3cc4c(C)nc5ccccc5c4o3)CC2)cc1", "activity change, negative = inhibition": "inactive: -4.87%"},
      {"smiles": "CC(=O)Nc1ccc(CN2CCCC(CO)(Cc3ccccc3C)C2)cc1", "note": "(configuration not stated)", "Potency": "inconclusive: 39.8 µM [inhibitor, single point]"},
      {"smiles": "CCN(CC)CCOC(=O)c1ccc(NC(=O)CCCN2C(=O)/C(=C\\c3cccs3)SC2=S)cc1", "Potency": "inconclusive: 8.91 µM [inhibitor, partial curve]"},
      {"smiles": "COc1ccc(C2/C(=C(/O)c3ccccc3)C(=O)C(=O)N2CCCN2CCOCC2)cc1", "note": "(configuration not stated)", "Potency": "inconclusive: 35.5 µM [inhibitor, single point]"}
    ]}
  ]
}
